In this assay the target is recombinant human TIGIT (His Tag) (human) (UniProt Q495A1). The assay is described as follows: ELISA, plate coated with recombinant human TIGIT (His Tag); hu20 mAb is the reference. On the technique in general: An ELISA detects its analyte on a solid surface through an enzyme-linked reagent.

By UniProt entry, the sequences of proteins in these tests, tags left out. Residues count along the entry.
UniProt Q495A1, residues 22-141: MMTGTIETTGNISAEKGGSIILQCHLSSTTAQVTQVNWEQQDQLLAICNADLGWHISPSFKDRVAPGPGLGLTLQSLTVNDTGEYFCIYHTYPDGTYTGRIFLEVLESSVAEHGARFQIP

No constants are given. Whether binding was seen depends on the method and setting. Some entries that bind do so weakly or less than the wild type.

B1: hu20 (a recombinant humanized anti-TIGIT monoclonal antibody) (antibody, V domains shown, not shown: a dimerising Fc or GST)
VH: QVQLVQSGAEVKKPGASVKVSCKTSGYAFTEYTMHWVRQAPGKGLEWMGGINPNTGGTTYNQKFQGRVTLTVDKSSSTAYMELSSLRSEDTVVYYCAKLLRLMYYFDYWGQGTLVTVSS
VL: DIQMTQSPSSLSASVGDRVTITCQASQDVRTAVAWYQQKPGKAPKLLIYSASYRYTGVPSRFSGSGSGTDFTFTISSLQPEDIATYYCHQHYITPWTFGGGTKVEIKR
As for B1, the binding result was “binds”.

Source of the values: US20240117043A1.
